About 6,200 (1.8%) of roughly 340,000 compounds were called active. This list was built around the results that the source calls inconclusive (neither active nor inactive); the mix of calls is not that of the screen. Calls come from the whole dose curve; as a rule, active = well fitted activation curve with a large enough effect; inconclusive = small, poorly fitted or top-dose-only effect; inactive = no such curve, though single readings can be large or run the other way. Potencies of inconclusive entries are doubtful fits and often do not repeat.
Test: A quantitative high throughput screen for small molecules that induce DNA re-replication in SW480 colon adenocarcinoma cells. For re-replication activation: % of control where 0% means no effect. Note: nearly all actives have a fitted effect of over 55% in size.
Conditions: Hoechst DNA content imaging, 48 h; re-replication activation: at 46.1 µM (top of the series) unless noted
Procedure, shortened: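 SW480 cells exposed to compounds for 48 hr at 37 C, 5% CO2, then Hoechst-stained 40 min. Nuclear DNA content imaged by fluorescence scanning (405 nm excitation, 500-530 nm emission); re-replication scored as increased high-intensity nuclei.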
Potency is the fitted concentration of half-maximal effect.

Row | SMILES | Potency | re-replication activation
1 | CC(=O)N/N=C/c1cc(C(C)(C)C)cc(/C=N/NC(C)=O)c1O | active: 3.26 µM | –
2 | COc1ccc(NS(=O)(=O)c2ccc3nc(COc4cccc5ccccc45)[nH]c3c2)cc1 | inconclusive: 29.1 µM [activator, single point] | –
3 | COc1ccc(CNC(=O)COC(=O)CN2C(=O)C3CC=CCC3C2=O)cc1 (centres undefined) | – | inactive: -2.66%
4 | CN1CCN(c2ccc(Nc3ccnc4cc(Cl)ccc34)cc2)CC1 | inconclusive: 18.4 µM [activator, single point] | –
5 | CCOC(=O)c1sc(NC(=O)CN2C(=O)NC3(CC(C)CC(C)(C)C3)C2=O)cc1C (centres undefined) | inconclusive: 29.1 µM [activator, single point] | –
6 | Cc1cccc(CS(=O)(=O)c2ncc(Cl)c(C(=O)Nc3nnc(C(C)C)s3)n2)c1 | inconclusive: 29.1 µM [activator, single point] | –
7 | CCc1cc(SC#N)cc(CC)c1NC(=O)CCl | active: 23.1 µM | –
8 | Cc1c(Cl)cccc1NC(=S)N(CCCN1CCOCC1)Cc1cccs1 | – | inactive: -3.07%
9 | C[C@H](NC(=O)c1ccccc1)C(=O)N1CCN(c2ccccc2)CC1 | – | inactive: -3.62%
10 | CCOC(=O)c1c(-c2ccccc2)csc1NC(=O)CSc1nncs1 | – | inactive: -15%
11 | COc1ccc(CCNC(=O)c2ccc(Cl)cc2)cc1 | – | inactive: 0.0139%
12 | NC(=O)C1CCCN(C(=O)c2ccc3nc(Cc4cccc(Cl)c4)oc3c2)C1 (centres undefined) | – | inactive: -19.1%
13 | COc1ccc(Cl)cc1NC(=S)NCCN1CCOCC1 | inconclusive: 29.1 µM [activator, single point] | –
14 | COc1ccc(N(CCCN2C(=O)c3cccc4cccc(c34)C2=O)C(=O)c2cccc(OC)c2)cc1 | inconclusive: 32.6 µM [activator, partial curve, poor fit] | –
15 | CSc1cccc(NC(=O)c2cccc3cccnc23)c1 | – | inactive: 10.1%
16 | Brc1ccc(N/N=C(/N=Nc2nn[nH]n2)c2ccccc2)cc1 | inconclusive: 1.46 µM [activator, partial curve, poor fit] | –
17 | COC(=O)c1cccc(Cn2c(Cl)c(/C=N/NC(=O)c3ccccc3Cl)sc2=O)c1 | inconclusive: 29.1 µM [activator, single point] | –
18 | CC(=O)OC[C@H]1O[C@@H](Sc2cccc3cccnc23)[C@H](OC(C)=O)[C@@H](OC(C)=O)[C@H]1OC(C)=O | inconclusive: 29.1 µM [activator, single point] | –
19 | COc1ccc2ccccc2c1CNC(C)CCc1ccccc1 (centres undefined) | inconclusive: 29.1 µM [activator, single point] | –
20 | CCN(CCO)C(=S)Nc1cc(C(=O)OC)ccc1C(=O)OC | inconclusive: 0.0731 µM [activator, full curve, poor fit] | –
21 | Cc1ccccc1CN1C(=O)c2ccccc2Sc2ccc(C(=O)NCCN3CCOCC3)cc21 | inconclusive: 32.6 µM [activator, single point] | –
22 | Cc1ccc(NS(=O)(=O)c2ccc(NC(=O)C3CC3)cc2)c(C)c1 | inconclusive: 2.59 µM [activator, partial curve] | –
23 | Cc1ccc(C2(C)NC(=O)N(CC(=O)NNC(=O)c3ccccc3F)C2=O)cc1 (centres undefined) | – | inactive: 2.44%

Row | SMILES | Potency | re-replication activation
24 | CN(C)c1ccc(P(=O)(Nc2cccc(C(F)(F)F)c2)N2CCOCC2)c(NC(=O)c2cccs2)c1 (centres undefined) | inconclusive: 13 µM [activator, partial curve, poor fit] | –
25 | O=C1CC/C=C\C[C@@H](CC(=O)N(CCO)Cc2ccccc2)C(=O)N2CCC[C@H]2CO1 | – | inactive: -11.6%
26 | CCCCn1nc(C(=O)NC2=NCCS2)c2ccccc2c1=O | – | inactive: 2.82% [at 9.22 µM]
27 | CCOC(=O)c1sc(NC(=O)/C=C/c2cnn(C)c2C)c(C(=O)OC(C)C)c1C | inconclusive: 7.08 µM [activator, partial curve] | –
28 | COCCNC(=O)C(c1c[nH]c2ccccc12)N(C(=O)c1snc(C(N)=O)c1N)c1cccc(OC)c1 (centres undefined) | – | inactive: -95.6%
29 | Cc1cc(Br)ccc1NC(=O)CN(C)C(=O)C1CCN(c2ncnc3sc(C)c(C)c23)CC1 | inconclusive: 32.6 µM [activator, partial curve, poor fit] | –
30 | COc1cc(C(=O)NC(=S)N(CCc2ccccc2)CCc2ccccc2)cc(OC)c1OC | inconclusive: 8.2 µM [activator, partial curve] | –
31 | COc1cc(CN2CCc3ccccc3C2)ccc1O | inconclusive: 2.59 µM [activator, partial curve] | –
32 | O=C(O)Cn1cccc1C(=O)c1ccccc1 | inconclusive: 2.06 µM [activator, partial curve] | –
33 | CCOc1nc(Nc2ccccc2)nc(OCC)n1 | inconclusive: 6.51 µM [activator, single point] | –
34 | COc1ccccc1N1CCN(C(=O)c2sc3nc(-c4ccc(F)cc4)cn3c2C)CC1 | – | inactive: -4.84%
35 | O=C(CCCN1C(=O)/C(=C/c2ccccc2Cl)SC1=S)N1CCCC1 | inconclusive: 2.91 µM [activator, partial curve, poor fit] | –
36 | O=C(/C=C/c1ccco1)NC(=S)Nc1ccc(N2CCCC2)cc1 | inconclusive: 25.9 µM [activator, single point] | –
37 | COc1cccc2c(SCC(=O)N/N=C/c3ccc(O)cc3O)cc(C)nc12 | active: 7.31 µM | –
38 | CCN(CC)S(=O)(=O)c1ccc(N/N=C(\C)c2ccncc2)nc1 | inconclusive: 20.6 µM [activator, single point] | –
39 | CCOC(=O)c1ccccc1OCc1cc(/C=N/NC(=O)c2cccnc2)ccc1OC | inconclusive: 18.4 µM [activator, single point] | –
40 | COc1ccc(-c2sc3ccc(OC)cc3c2C#Cc2ccccn2)cc1 | inconclusive: 16.4 µM [activator, partial curve, poor fit] | –
41 | CC(NC(=O)CSc1n[nH]c(=O)[nH]c1=O)C1CC2CCC1C2 (centres undefined) | inconclusive: 16.4 µM [activator, single point] | –
42 | CC(C)c1cc(CNC(=O)CC2C(=O)NCCN2CC2CCCCC2)on1 (centres undefined) | – | inactive: -4.99%
43 | CCN=C1S/C(=C\c2cc(Br)c(O)c(OC)c2)C(=O)N1CC | inconclusive: 18.4 µM [activator, partial curve, poor fit] | –
44 | O=C(Nc1cccnc1)C1CCCN(c2ncnc3c2nc2n3CCCCC2)C1 (centres undefined) | inconclusive: 1.3 µM [activator, partial curve] | –
45 | O=C(Nc1ccc2nccnc2c1)c1ccco1 | inconclusive: 29.1 µM [activator, partial curve, poor fit] | –
46 | c1ccc2c(c1)Cc1ccccc1O2 | inconclusive: 0.0046 µM [activator, full curve, poor fit] | –

Compounds listed so far that have fluorine (3):
Row | SMILES | Potency | re-replication activation
23 | Cc1ccc(C2(C)NC(=O)N(CC(=O)NNC(=O)c3ccccc3F)C2=O)cc1 (centres undefined) | – | inactive: 2.44%
24 | CN(C)c1ccc(P(=O)(Nc2cccc(C(F)(F)F)c2)N2CCOCC2)c(NC(=O)c2cccs2)c1 (centres undefined) | inconclusive: 13 µM [activator, partial curve, poor fit] | –
34 | COc1ccccc1N1CCN(C(=O)c2sc3nc(-c4ccc(F)cc4)cn3c2C)CC1 | – | inactive: -4.84%

(further entries)

Row | SMILES | Potency | re-replication activation
47 | COc1cc(C(=O)N2CCN(c3ccc(C)cc3C)CC2)cc(OC)c1OC | active: 6.51 µM | –
48 | COc1ccc(/C=C/C(=O)NC(C)CCc2ccccc2)cc1OC (centres undefined) | inconclusive: 29.1 µM [activator, single point] | –
49 | O=C(NCc1ccc(Cl)cc1)c1ccc(Cn2cc(C(F)(F)F)ccc2=O)cc1 | – | inactive: -4.58%
50 | COc1cc(C(=O)NC(C)CCc2ccccc2)cc(OC)c1OC (centres undefined) | – | inactive: -1.59%
51 | COc1cccc(NS(=O)(=O)c2ccc(S(=O)(=O)N3CCCC3)cc2)c1 | – | inactive: 2.8%
52 | CCNC(=O)C(=O)NCC1CCCN1S(=O)(=O)c1cccs1 (centres undefined) | – | inactive: 0.569%
53 | Cc1ccc(S(=O)(=O)N2CCN(c3ccc(S(=O)(=O)N4CCOCC4)cn3)CC2)cc1 | inconclusive: 18.4 µM [activator, partial curve, poor fit] | –
54 | Oc1ccc(Cl)cc1CNCc1ccc(Cl)cc1 | inconclusive: 2.06 µM [activator, single point] | –
55 | COCCN1CCN(C(=O)c2cc(COc3cncc(Cl)c3)on2)CC1 | – | inactive: 5.06%
56 | CCCC(=O)Nc1ccc2oc(-c3ccc(OC)c(Br)c3)nc2c1 | inconclusive: 18.4 µM [activator, single point] | –
57 | c1ccc(-n2cnnc2SCc2cn3cccnc3n2)cc1 | inconclusive: 5.17 µM [activator, single point] | –
58 | NCCCCCC(=O)O | inconclusive: 0.206 µM [activator, single point] | –
59 | CCOc1ccc(-c2nc(S(=O)(=O)c3ccccc3)c(NCc3cccnc3)o2)cc1 | – | inactive: -1.8%
60 | Cc1ccc(-c2nnc(NC(=O)Cc3ccc(F)cc3)o2)c(C)c1 | inconclusive: 9.2 µM [activator, single point] | –
61 | CC(=O)c1cccc(NC(=S)NC(=O)c2ccccc2)c1 | – | inactive: 1.93%
62 | CCc1ccc(N2Cc3ccccc3C2)cc1 | inconclusive: 20.6 µM [activator, single point] | –
63 | COc1ccccc1NC(=O)Nc1nnc(C(C)c2ccccc2)s1 (centres undefined) | inconclusive: 1.3 µM [activator, full curve, poor fit] | –
64 | COc1ccc(C(=O)/C=C/C(=O)N(CC(=O)NCCC(C)C)Cc2cccs2)c(O)c1 | inconclusive: 0.366 µM [activator, full curve, poor fit] | –
65 | FC(F)(F)c1cccc(NC(=S)Nc2cccc(NC(=S)Nc3cccc(C(F)(F)F)c3)n2)c1 | inconclusive: 29.1 µM [activator, single point] | –
66 | COc1ccc(NC(=O)C23CC4CC(C2)CC(c2ccccc2)(C4)C3)c(OC)c1 | inconclusive: 1.64 µM [activator, partial curve, poor fit] | –
67 | O=C1/C(=N\S(=O)(=O)c2cccs2)C([n+]2ccc(CCCc3ccccc3)cc2)=C([O-])c2ccccc21 | inconclusive: 29.1 µM [activator, single point] | –
68 | CCC1Oc2ccccc2N(CC(=O)NCCCN2CCCCC2C)C1=O (centres undefined) | inconclusive: 29.1 µM [activator, single point] | –
69 | COc1ccc(N(C)S(=O)(=O)c2cccc(C(=O)Nc3nnc(C4CC4)s3)c2)cc1 | – | inactive: 1.17%

Reference: PubChem BioAssay AID624297 (National Center for Advancing Translational Sciences (NCATS), 2012)
